Assay results published in patent publication US8829044B2, “Stabilized vitamin C derivatives having a peptide molecule, preparation method thereof, and composition containing the same” (Peotron Co. Ltd., priority 2006, dated 2014).
At least one peptide structure holds a part that was inferred or is arguable (an end, a ring closure or a residue). Some entries repeat one wording, which the source may state once for all of them. Peptide text beside a SMILES is read from it. * marks the point of attachment. X1 = O=C(CCC(=O)*)O[C@@H](CO)[C@H]1OC(=O)C(OP(=O)(O)O)=C1O

Tested on: human neonatal dermal fibroblasts
Test: Collagen biosynthesis (type 1 collagen ELISA) in fibroblasts
Format: cell-based
Details: 10 μM, 72 hours, relative to control group = 100%, FIG. 1; in words only

Compound | capability of promoting collagen synthesis
CSCC[C@H](NC(=O)[C@H](CCC(=O)O)NC(=O)[C@H](CCC(=O)O)NC(=O)CCC(=O)O[C@@H](CO)[C@H]1OC(=O)C(OP(=O)(O)O)=C1O)C(=O)N[C@@H](CCC(N)=O)C(=O)N[C@@H](CCCNC(=N)N)C(=O)N[C@@H](CCCNC(=N)N)C(=O)O [Ic-5, 2-phospho-5-(succinyl-glutamic acid-glutamic acid-methionine-glutamine-arginine-arginine) ascorbic acid] (X1-EEMQRR-OH) | superior capability in promoting collagen synthesis
NCCCC[C@H](NC(=O)CNC(=O)CCC(=O)O[C@@H](CO)[C@H]1OC(=O)C(OP(=O)(O)O)=C1O)C(=O)N[C@@H](Cc1c[nH]cn1)C(=O)O [Ic-3, 2-phospho-5-(succinyl-glycine-lysine-histidine) ascorbic acid] | superior capability in promoting collagen synthesis
C[C@@H](O)[C@H](NC(=O)[C@H](CCCCN)NC(=O)CCC(=O)O[C@@H](CO)[C@H]1OC(=O)C(OP(=O)(O)O)=C1O)C(=O)N[C@H](C(=O)N[C@@H](CCCCN)C(=O)N[C@@H](CO)C(=O)O)[C@@H](C)O [Ic-1, 2-phospho-5-(succinyl-lysine-threonine-threonine-lysine-serine) ascorbic acid] (X1-KTTKS-OH) | much superior capability of promoting collagen synthesis
NCCCC[C@H](NC(=O)[C@H](Cc1c[nH]cn1)NC(=O)CNC(=O)CCC(=O)O[C@@H](CO)[C@H]1OC(=O)C(OP(=O)(O)O)=C1O)C(=O)O [Ic-2, 2-phospho-5-(succinyl-glycine-histidine-lysine) ascorbic acid] | superior capability in promoting collagen synthesis
O=C(CCC(=O)O[C@@H](CO)[C@H]1OC(=O)C(OP(=O)(O)O)=C1O)NCC(=O)N1CCC[C@H]1C(=O)N1C[C@H](O)C[C@H]1C(=O)O [Ic-4, 2-phospho-5-(succinyl-glycine-proline-hydroxyproline) ascorbic acid] | superior capability in promoting collagen synthesis
